Experimental data reported in paper PMC7862700.
This is a selection; strong and weak results do not stand in their true shares. At the low end of the ranking the order means little.

Amino acid sequences for entries named in this document (tags omitted). A change or cut given only in a name is not applied to a line headed by its entry.
UniProt O43186: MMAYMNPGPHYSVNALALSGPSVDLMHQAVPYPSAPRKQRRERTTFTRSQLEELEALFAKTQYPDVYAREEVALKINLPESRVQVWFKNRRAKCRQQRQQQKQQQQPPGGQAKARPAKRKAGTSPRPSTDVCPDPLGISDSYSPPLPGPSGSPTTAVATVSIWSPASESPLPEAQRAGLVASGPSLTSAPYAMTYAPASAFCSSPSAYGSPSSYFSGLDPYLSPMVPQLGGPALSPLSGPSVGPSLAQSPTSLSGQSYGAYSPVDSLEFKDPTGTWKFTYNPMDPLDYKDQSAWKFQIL

What was measured:
Test in all cases: DAPPL (digital affinity profiling via proximity ligation, sequencing)
Settings in all cases: 10 mM Tris-HCl pH 7.5, 50 mM NaCl, 1 mM DTT, 4% glycerol, room temperature, 30 min; GST-TFs on glutathione beads, 16-mer random dsDNA library, 0.1% …; high values mean tight binding; double strand, one strand shown; scale: fold enrichment (6-mer frequency, TF over GST control)
[1] = molecular target: T1, FEV (UniProt Q99581)
T1 sequence: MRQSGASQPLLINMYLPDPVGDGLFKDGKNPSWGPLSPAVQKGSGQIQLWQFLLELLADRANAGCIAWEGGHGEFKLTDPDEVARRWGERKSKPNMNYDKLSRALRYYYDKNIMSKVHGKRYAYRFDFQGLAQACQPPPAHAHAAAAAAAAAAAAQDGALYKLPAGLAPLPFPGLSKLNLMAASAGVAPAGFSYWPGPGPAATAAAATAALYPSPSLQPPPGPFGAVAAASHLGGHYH

[2] = molecular target: CRX (UniProt O43186)
[3] = molecular target: T2, ELF5 (UniProt Q9UKW6-2)
T2 sequence: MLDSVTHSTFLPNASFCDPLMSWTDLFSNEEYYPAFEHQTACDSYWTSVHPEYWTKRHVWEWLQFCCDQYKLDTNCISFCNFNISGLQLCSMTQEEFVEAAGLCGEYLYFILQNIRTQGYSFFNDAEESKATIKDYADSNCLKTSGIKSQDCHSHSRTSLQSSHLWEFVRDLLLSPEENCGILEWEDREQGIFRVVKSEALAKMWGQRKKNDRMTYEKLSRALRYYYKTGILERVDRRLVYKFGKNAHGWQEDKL

Row | Sequence | binding signal [1] | binding signal [2] | binding signal [3]
1 | TGAGCA | 0.874 | 0.803 | 0.711
2 | TCGTGC | 0.791 | 0.639 | 0.711
3 | AGCCGC | 0.873 | 0.974 | 0.813
4 | TAGTCG | 0.455 | 0.533 | 0.476
5 | CGAGGA | 0.632 | 0.577 | 0.726
6 | GGATCG | 0.599 | 0.629 | 0.552
7 | CGTGCG | 0.678 | 0.49 | 0.61
8 | GCAGGA | 0.832 | 0.601 | 0.885
9 | CGGCCA | 0.797 | 0.591 | 0.772
10 | GGGACA | 0.718 | 0.441 | 0.666
11 | GGACAG | 0.573 | 0.44 | 0.572
12 | CAGGTA | 0.79 | 0.705 | 0.802
13 | TGAGCC | 0.855 | 0.976 | 0.775
14 | GTGGCG | 0.848 | 0.546 | 0.827
15 | ATCGTA | 0.852 | 0.974 | 0.819
16 | CCATCG | 0.808 | 0.706 | 0.773
17 | GGTGAT | 0.839 | 0.853 | 0.764
18 | AGTCAT | 0.573 | 0.5 | 0.63
19 | AGGGGC | 0.797 | 0.721 | 0.724
20 | GGCCAG | 0.468 | 0.366 | 0.402
21 | GTGATT | 0.707 | 0.992 | 0.682
22 | GGAGAA | 0.31 | 0.301 | 0.32
23 | GCGGGG | 0.45 | 0.395 | 0.427
24 | AGAGAC | 0.544 | 0.471 | 0.47

Row | Sequence | binding signal [1] | binding signal [2] | binding signal [3]
25 | CACGTG | 0.61 | 0.515 | 0.569
26 | TGCGTG | 0.652 | 0.506 | 0.7
27 | AGAAAG | 0.836 | 1.01 | 0.817
28 | GAGAAG | 0.661 | 0.698 | 0.721
29 | GTGATA | 0.675 | 0.706 | 0.645
30 | GGTGCA | 0.84 | 0.647 | 0.848
31 | GGCCGT | 0.39 | 0.313 | 0.356
32 | AAGGAG | 0.324 | 0.325 | 0.345
33 | TGAGAT | 0.747 | 0.893 | 0.631
34 | GCCAAG | 0.84 | 0.756 | 0.808
35 | ACCGTA | 0.834 | 0.837 | 0.846
36 | GCCAGG | 0.428 | 0.337 | 0.425
37 | GAGGAC | 0.632 | 0.487 | 0.641
38 | GCCAAA | 0.897 | 0.869 | 0.887
39 | TGCGAG | 0.856 | 0.876 | 0.856
40 | GTAGGT | 0.769 | 0.628 | 0.805
41 | TACAGT | 0.818 | 0.846 | 0.836
42 | GGAGGT | 0.319 | 0.26 | 0.337
43 | GCTGGA | 0.842 | 0.884 | 0.781
44 | CCAGCG | 0.613 | 0.543 | 0.601
45 | GCGGTC | 0.634 | 0.462 | 0.602
46 | ACGGTG | 0.504 | 0.409 | 0.508
47 | GGCAGG | 0.628 | 0.435 | 0.558
48 | TGTGTA | 0.806 | 0.78 | 0.797

Row | Sequence | binding signal [1] | binding signal [2] | binding signal [3]
49 | GCATGA | 0.811 | 0.677 | 0.753
50 | CAGAGT | 0.609 | 0.512 | 0.605
51 | CGCATT | 0.742 | 0.906 | 0.774
52 | GTCGAT | 0.63 | 0.628 | 0.655
53 | TGAGCG | 0.648 | 0.608 | 0.591
54 | AGCGGA | 0.89 | 0.57 | 0.861
55 | AGCGTT | 0.883 | 0.9 | 0.916
56 | GGTGGG | 0.631 | 0.507 | 0.634
57 | GCGGGT | 0.564 | 0.515 | 0.577
58 | GCGAGT | 0.544 | 0.42 | 0.502
59 | GGGTCC | 0.797 | 0.554 | 0.785
60 | CCGTGA | 0.185 | 0.165 | 0.197
61 | GAGTGG | 0.583 | 0.518 | 0.582
62 | GGGGCC | 0.563 | 0.394 | 0.522
63 | GCCATG | 0.798 | 0.622 | 0.745
64 | GAGTAT | 0.575 | 0.644 | 0.569
65 | CGTCGT | 0.88 | 0.642 | 0.857
66 | TCGTGT | 0.717 | 0.718 | 0.757
67 | GCGCAA | 0.854 | 0.688 | 0.77
68 | GGGCAC | 0.812 | 0.553 | 0.735
69 | AGTCTG | 0.563 | 0.551 | 0.592
70 | GTCGCC | 0.898 | 0.585 | 0.889
71 | ACAGGC | 0.677 | 0.588 | 0.622
72 | GTCGGG | 0.213 | 0.184 | 0.223

Whole records as entered above.
CGTCGT in the list: binding signal [1] = 0.88; binding signal [2] = 0.642; binding signal [3] = 0.857
GCGAGT in the list: binding signal [1] = 0.544; binding signal [2] = 0.42; binding signal [3] = 0.502
ACAGGC in the list: binding signal [1] = 0.677; binding signal [2] = 0.588; binding signal [3] = 0.622
GTCGGG in the list: binding signal [1] = 0.213; binding signal [2] = 0.184; binding signal [3] = 0.223

Further results:

Row | Sequence | binding signal [1] | binding signal [2] | binding signal [3]
73 | CGGAGC | 0.361 | 0.296 | 0.35
74 | AGCAGT | 0.709 | 0.629 | 0.742
75 | GAGGTG | 0.423 | 0.377 | 0.438
76 | CGTGTT | 0.795 | 0.651 | 0.868
77 | ATCCAG | 0.838 | 1.29 | 0.88
78 | TCGGAC | 0.384 | 0.314 | 0.337
79 | CGGAGG | 0.296 | 0.217 | 0.276
80 | CAGTAC | 0.879 | 0.682 | 0.798
81 | ATGGAG | 0.532 | 0.546 | 0.565
82 | CAGCCA | 0.837 | 0.686 | 0.79
83 | TTGAGT | 0.656 | 0.719 | 0.631
84 | GACAGG | 0.591 | 0.414 | 0.575
85 | GAGCGT | 0.324 | 0.317 | 0.349
86 | GGCGAG | 0.551 | 0.433 | 0.531
87 | CGGAGT | 0.325 | 0.256 | 0.294
88 | GGAGGC | 0.263 | 0.199 | 0.219
89 | CGTCGG | 0.424 | 0.356 | 0.449
90 | GAACGG | 0.634 | 0.458 | 0.638
91 | GGAGGG | 0.309 | 0.267 | 0.306
92 | CAAGTC | 0.859 | 0.675 | 0.823
93 | CAGCAG | 0.834 | 0.632 | 0.757
94 | CGCGAG | 0.469 | 0.434 | 0.496
95 | ACCATG | 0.827 | 0.652 | 0.801
96 | TAGAGC | 0.767 | 0.889 | 0.702

An excerpt from above, limited to binding signal [2]:
Row | Sequence | binding signal [2]
2 | TCGTGC | 0.639
13 | TGAGCC | 0.976
58 | GCGAGT | 0.42
59 | GGGTCC | 0.554

(list continues)

Row | Sequence | binding signal [1] | binding signal [2] | binding signal [3]
97 | GTGTCG | 0.559 | 0.386 | 0.62
98 | AGGACG | 0.515 | 0.353 | 0.51
99 | GCCGTA | 0.827 | 0.785 | 0.786
100 | GCAACG | 0.9 | 0.678 | 0.944
101 | GAGCCT | 0.879 | 0.915 | 0.764
102 | GTAGGC | 0.755 | 0.629 | 0.633
103 | GACCAC | 0.884 | 0.591 | 0.896
104 | AGGTAC | 0.91 | 0.724 | 0.917
105 | GCGCTG | 0.816 | 0.676 | 0.796
106 | GTCCGT | 0.504 | 0.372 | 0.536
107 | GGTCAA | 0.847 | 0.629 | 0.862
108 | GGAGTT | 0.399 | 0.384 | 0.422
109 | ACAGAG | 0.71 | 0.655 | 0.703
110 | CGGTTG | 0.83 | 0.5 | 0.799
111 | AGTGTG | 0.641 | 0.554 | 0.697
112 | GTCATC | 0.842 | 0.662 | 0.898
113 | GACTGA | 0.832 | 0.69 | 0.743
114 | AGGGCC | 0.938 | 0.787 | 0.863
115 | CCCGGG | 0.793 | 0.644 | 0.803
116 | AGCCTG | 0.887 | 0.922 | 0.85
117 | AGAGTA | 0.752 | 0.766 | 0.777
118 | CAGTGC | 0.789 | 0.558 | 0.697
119 | GAAGGG | 0.795 | 0.65 | 0.846
120 | GTCCAG | 0.597 | 0.534 | 0.651
